The source of these data is PMC6198467.

Results are given in words; binding and its absence hold for the method and conditions named. In cells and extracts the contact can be indirect. Some binding calls cover weakened binding; strength is not graded here. For part of these data: Tags and fused reporters may be left off the sequences shown.

The target in one experiment is T1, Flag-tagged Neurog2 (UniProt P70447).
T1 sequence: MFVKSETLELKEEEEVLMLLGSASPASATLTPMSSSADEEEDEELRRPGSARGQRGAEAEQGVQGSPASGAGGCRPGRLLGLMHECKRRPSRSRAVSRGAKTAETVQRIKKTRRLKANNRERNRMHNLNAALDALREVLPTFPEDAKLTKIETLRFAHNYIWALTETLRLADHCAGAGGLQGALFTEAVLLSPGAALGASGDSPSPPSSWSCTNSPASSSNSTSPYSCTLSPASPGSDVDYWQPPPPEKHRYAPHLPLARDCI
The experiment can be described thus: co-IP; NIH-3T3 co-transfected with Neurog1 and FLAG-tagged Neurog2; 400 ug lysate in NET2 buffer (0.05% NP40, 150 mM NaCl, 50 mM Tris-Cl pH 7.4) precipitated with anti-FLAG M2 beads overnight at 4 C; half the samples with DNaseI (2 U/ml); blot with anti-Neurog1.

For another experiment, the target named is T2, Neurog2 (UniProt P70447).
T2 sequence: T1 sequence
The experiment can be described thus: proximity ligation; NIH-3T3 transfected with pCIG2-Neurog1 and pCIG2-Neurog2, fixed 48 h after transfection; Duolink PLA with anti-Neurog1 and anti-Neurog2; single antibodies as controls.

Experiment [1] deals with T3, Neurog2 (endogenous, mouse embryonic cortex) (mouse (endogenous in embryonic cortex)) (UniProt P70447).
T3 sequence: T1 sequence
The experiment can be described thus: proximity ligation; dissociated E12.5 mouse cortical cells, fixed with 4% PFA; Duolink PLA with antibodies to the endogenous proteins; no-antibody negative control.

B1: Neurog1 (protein, UniProt P70660 1-244)
chain: MPAPLETCISDLDCSSSNSSSDLSSFLTDEEDCARLQPLASTSGLSVPARRSAPALSGASNVPGAQDEEQERRRRRGRARVRSEALLHSLRRSRRVKANDRERNRMHNLNAALDALRSVLPSFPDDTKLTKIETLRFAYNYIWALAETLRLADQGLPGGSARERLLPPQCVPCLPGPPSPASDTESWGSGAAASPCATVASPLSDPSSPSASEDFTYGPGDPLFSFPGLPKDLLHTTPCFIPYH
As for B1, the binding entry with Flag-tagged Neurog2 and with Neurog2 was “binds” in each case.

B2: Neurog1 (endogenous, mouse embryonic cortex) (protein, UniProt P70660 1-244)
chain: B1 chain
With B2, the binding entry in experiment [1] is “binds”.
